Experimental data reported in publication PMC7918733, “Biological Profiling of Semisynthetic C19-Functionalized Ferruginol and Sugiol Analogues” (Antibiotics, 2021).

Experiments:
P. falciparum 3D7 strain = assay: Antiplasmodial DNA stain-based growth assay; type: cell-based, Plasmodium falciparum; details: EC50 lower values of cytotoxic activity/EC50 antimalarial activity
Method: (§1) Assays were performed by using previously described DNA stain-based assay and methods, including cytotoxicity assays.

[1] = system: L. donovani promastigotes; assay: Antileishmanial in vitro promastigote assay; details: SI = CC50/IC50 (J774)
[2] = system: L. guyanensis promastigotes; assay: Antileishmanial in vitro promastigote assay; details: SI = CC50/IC50 (J774)
[3] = system: L. amazonensis promastigotes; assay: Antileishmanial in vitro promastigote assay; details: SI = CC50/IC50 (J774)
L. infantum amastigotes = assay: Intracellular amastigote assay (fluorometric test); type: cell-based; details: SI = CC50/IC50 (J774)
[4] = system: L. amazonensis amastigotes; assay: Intracellular amastigote assay (fluorometric test); type: cell-based; details: SI = CC50/IC50 (J774)
[5] = system: L. infantum promastigotes; assay: Antileishmanial in vitro promastigote assay; details: SI = CC50/IC50 (J774)
P. falciparum K1 strain = assay: Antiplasmodial DNA stain-based growth assay; type: cell-based, Plasmodium falciparum; details: EC50 lower values of cytotoxic activity/EC50 antimalarial activity
Method: as §1

[6] = system: L. donovani promastigotes; details: cited from earlier work
[7] = system: L. guyanensis promastigotes; parameters: method as in PMID 30840453; details: C18-congeners, ratio CC50 / IC50; cited from earlier work
[8] = system: L. amazonensis promastigotes; parameters: method as in PMID 30840453; details: C18-congeners, ratio CC50 / IC50; cited from earlier work
[9] = system: L. infantum promastigotes; parameters: method as in PMID 30840453; details: C18-congeners, ratio CC50 / IC50; cited from earlier work

Row | SMILES | L. donovani SI [1] | L. guyanensis SI [2] | L. amazonensis SI [3] | L. infantum SI (L. infantum amastigotes) | L. amazonensis SI [4] | L. infantum SI [5] | P. falciparum K1 SI (P. falciparum K1 strain) | further results
1 | COC(=O)[C@@]1(C)CCC[C@]2(C)c3cc(O)c(C(C)C)cc3CC[C@@H]12 [Compound 12] |  |  |  |  |  |  |  | P. falciparum 3D7 SI (P. falciparum 3D7 strain): 5.3
2 | CC(C)c1cc2c(cc1O)[C@@]1(C)CCC[C@](C)(C(=O)O)[C@@H]1CC2 [Compound 13, lambertic acid] | 17.0 | 12.2 | 4.2 | >11.3 | > 24.7 | 7.5 |  | 
3 | COC(=O)[C@@]1(C)CCC[C@]2(C)c3cc(O)c(C(C)C)cc3C(=O)C[C@@H]12 [Compound 16] | >16.9 | > 35.7 | > 23.5 | >12.1 | >12.4 | >19.8 | 6.4 | P. falciparum 3D7 SI (P. falciparum 3D7 strain): 5.2
4 | CC(C)c1cc2c(cc1O)[C@@]1(C)CCC[C@](C)(CO)[C@@H]1CC2=O [Compound 15, 19-hydroxysugiol] |  |  |  |  |  |  | 2.6 | 
5 | CC(C)c1cc2c(cc1O)[C@@]1(C)CCCC(C)(C)[C@@H]1CC2 [Compound 1, ferruginol] |  |  |  |  |  |  |  | L. donovani SI ([6]; versus Vero): >1.4
6 | CC(C)c1cc2c(cc1O)[C@@]1(C)CCC[C@@](C)(C(=O)O)C1CC2 (stereo partly shown) [Compound 13b, 12-hydroxydehydroabietic acid] |  |  |  |  |  |  |  | L. guyanensis SI [7]: 1.2; L. donovani SI ([6]; C18-congeners, ratio CC50 / IC50): 1.5; L. amazonensis SI [8]: 1.6; L. infantum SI [9]: 2.0
7 | CC(C)c1cc2c(cc1O)C1(C)CCCC(C)(C(=O)O)C1CC2=O (single isomer, unassigned; (+)) [Compound 8a, (+)-4-epi-liquiditerpenoic acid A] | >2.4 | > 67 | >2.1 | >9.9 | >9.3 | >2.0 |  | 
8 | CC(C)c1cc2c(cc1O)[C@@]1(C)CCC[C@](C)(CO)[C@@H]1CC2 [Compound 14, 19-hydroxyferruginol] |  |  |  |  |  |  | 2.2 | 

Read-outs that look alike come from different tables or passages of the source.
